Read-outs that look alike come from different tables or passages of the source. These are yes or no findings as the source states them, for the method shown. A result given as binding can be weak or reduced; the word gives no strength.
Key:
[1] = target: Voltage-Dependent Anion Channel (VDAC) isolated from rat liver mitochondria (rat); experiment: single-channel electrophysiology, open-channel current noise
[2] = target: Voltage-Dependent Anion Channel (VDAC) isolated from rat liver mitochondria (rat); experiment: as above; remark: listed apart in the source

- binding [1]: binds
- binding [2]: binds
Binder: MIASHLLAYFFTELN [HK2p, the 15 amino acid N-terminal peptide of human hexokinase-2]

Source: article doi:10.1101/2022.04.07.487541
